## Cleaved PARP after 72 h of treatment

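Human melanoma cell lines in 1,536-well plates were treated with a pair of drugs for 72 h, then fixed, stained and imaged. Values are the share of nuclei positive for cleaved PARP as a percentage of the same share in the DMSO control: 100 is the control level, higher means more apoptosis. Concentrations were fixed for each drug; these are the higher of two levels. These are primary screening values without error estimates. The marker varies much from line to line, for technical or biological reasons.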 Only some of the drugs and lines screened are listed, without regard to their results. A dash means that no value is listed here.

Every entry is a combination with etoposide at 0.1 µM: COc1cc([C@@H]2c3cc4c(cc3[C@@H](O[C@@H]3O[C@@H]5CO[C@@H](C)O[C@H]5[C@H](O)[C@H]3O)[C@H]3COC(=O)[C@H]23)OCO4)cc(OC)c1O

Second drug	IST-MEL1	COLO 800	G-361	IPC-298	MeWo	LB2518-MEL	A101D	SK-MEL-2	SK-MEL-30	A375	WM3619	COLO 829	501mel	RVH-421	C32
CCN(CC)CCCCNc1ncc2cc(-c3cc(OC)cc(OC)c3)c(NC(=O)NC(C)(C)C)nc2n1 at 0.5 µM	30.3	136	61.4	41.9	56.1	72.4	163	135	75.0	124	112	58.7	94.5	68.6	105
CC(C)CCN1c2nc(Nc3cc(F)c(O)c(F)c3)ncc2N(C)C(=O)C1C (stereo not given) at 1 µM	146	80.0	281	265	216	124	261	132	128	250	190	109	94.1	104	99.5
NC1(c2ccc(-c3nc4ccn5c(=O)[nH]nc5c4cc3-c3ccccc3)cc2)CCC1 at 2 µM	148	91.9	125	364	-	214	84.8	46.4	269	1150	181	-	-	65.8	401
Cn1c(=O)n(-c2ccc(C(C)(C)C#N)cc2)c2c3cc(-c4cnc5ccccc5c4)ccc3ncc21 at 0.02 µM	95.3	212	133	183	108	268	85.1	171	159	124	178	82.2	-	140	227
C[C@]12O[C@H](C[C@]1(O)CO)n1c3ccccc3c3c4c(c5c6ccccc6n2c5c31)CNC4=O at 0.02 µM	315	95.9	89.5	220	127	167	96.8	141	125	22.8	101	101	-	104	149
CC(C)(C)c1cnc(CSc2cnc(NC(=O)C3CCNCC3)s2)o1 at 0.05 µM	89.0	242	131	61.5	99.1	59.8	119	399	113	-	145	97.2	-	53.2	111
c1cc(-c2cnn3cc(-c4ccc(OCCN5CCCCC5)cc4)cnc23)ccn1 at 2 µM	31.7	98.7	194	59.6	126	-	90.1	116	162	177	154	77.8	693	-	168
C[C@]1(O)C[C@@H](c2nc(-c3ccc4ccc(-c5ccccc5)nc4c3)c3c(N)nccn32)C1 at 2 µM	55.2	250	79.7	141	157	79.0	150	599	81.0	414	135	-	-	144	179
NC(=O)c1ccc(N(C(N)=O)c2c(F)cccc2F)nc1-c1ccc(F)cc1F at 2 µM	141	151	64.0	189	91.8	364	70.1	143	69.8	178	89.4	-	-	42.2	98.6
O=C(/C=C/c1cccnc1)NCCCCC1CCN(C(=O)c2ccccc2)CC1 at 0.05 µM	326	279	5860	801	174	-	163	5070	146	119	130	231	-	1110	78.5
N.N.[Cl][Pt][Cl] at 8 µM	78.7	90.8	124	93.8	76.9	68.1	99.9	253	232	240	145	175	-	82.3	-
CN(C)S(=O)(=O)c1ccc2c(c1)/C(=C/c1cc3c([nH]1)CCCC3)C(=O)N2 at 2 µM	67.5	162	187	37.1	99.3	68.5	142	126	147	-	136	91.5	-	84.7	128
CCCCCCCCCCCC1=C(O)C(=O)C=C(O)C1=O at 6 µM	150	124	71.5	69.5	69.5	56.7	139	234	58.4	63.9	121	145	91.8	141	91.4
COc1cc(N2CCC(N3CCN(C)CC3)CC2)ccc1Nc1ncc(Cl)c(Nc2ccccc2S(=O)(=O)C(C)C)n1 at 0.4 µM	87.2	304	71.5	126	139	83.8	86.3	70.2	62.8	203	142	97.4	96.8	52.4	102
Cc1cc(SCc2sc(-c3ccc(C(F)(F)F)c(F)c3)nc2C)ccc1OCC(=O)O at 10 µM	85.3	96.3	132	48.1	110	117	63.1	325	61.8	166	143	132	102	64.8	102
Oc1nc(-c2ccc(C(F)(F)F)cc2)nc2c1CSCC2 at 10 µM	81.2	99.7	132	54.9	117	42.7	129	266	46.5	60.5	151	179	324	99.9	86.6
COc1ccc(C2=N[C@@H](c3ccc(Cl)cc3)[C@@H](c3ccc(Cl)cc3)N2C(=O)N2CCNC(=O)C2)c(OC(C)C)c1 at 0.5 µM	139	185	110	89.6	173	177	43.5	367	84.6	174	133	113	-	310	256
O=C1NC(=O)/C(=C/c2ccc(-c3ccc(F)cc3O)o2)S1 at 5 µM	213	104	203	112	20.0	67.7	65.9	220	142	80.4	109	88.6	99.0	105	101
C/C(O)=C(\C#N)C(=O)Nc1cc(Br)ccc1Br at 10 µM	81.8	109	41.1	79.4	183	54.2	47.5	333	198	204	171	90.4	-	81.3	96.9
O=S(=O)(c1ccccc1)N(CC(F)(F)F)c1ccc(C(O)(C(F)(F)F)C(F)(F)F)cc1 at 7 µM	76.7	92.3	122	39.6	24.5	78.5	166	222	85.3	164	228	140	59.8	272	94.1
Oc1cc(-c2nc(-c3ccccc3)[nH]c2-c2ccncc2)ccc1Cl at 1 µM	155	94.0	177	112	74.9	144	144	289	57.9	244	170	137	132	214	392
COc1ccc2c(c1)CCC1C2CCC2(C)C(NCCCCCCN3C(=O)C=CC3=O)CCC12 (stereo not given) at 2 µM	79.4	51.7	99.2	62.9	105	145	172	201	95.6	130	184	-	368	237	-
O=C(O)c1ccc(-c2c[nH]c3ncc(-c4ccccc4)cc23)cc1C1CCCC1 at 0.8 µM	305	339	283	86.4	153	58.3	98.3	214	151	-	140	147	-	623	117
CCCCCCCCCCCCCCCCCCOP(=O)([O-])OC1CC[N+](C)(C)CC1 at 2 µM	26.1	139	93.9	67.4	90.6	78.0	72.9	215	131	116	94.1	149	-	152	127
O=c1cc(-c2cccc3c2Sc2ccccc2S3)oc(N2CCOCC2)c1 at 5 µM	25.5	134	142	112	98.2	-	123	-	64.6	208	150	150	-	72.5	83.4
Cn1cc(/C=C2\C(=O)Nc3cccnc32)c2ccccc21 at 2 µM	33.9	50.3	176	151	50.9	193	109	123	50.6	112	92.4	79.9	98.5	58.2	90.5
Cc1cc(Nc2cc(N3CCN(C)CC3)nc(/C=C/c3ccccc3)n2)n[nH]1 at 0.2 µM	78.2	117	138	103	99.3	103	105	208	137	125	115	175	-	125	163
Cc1cn(-c2cc(NC(=O)c3ccc(C)c(Nc4nccc(-c5cccnc5)n4)c3)cc(C(F)(F)F)c2)cn1 at 1 µM	191	85.0	108	144	78.3	-	41.5	488	112	68.6	113	-	-	44.7	96.9
C#Cc1cccc(Nc2ncnc3cc(OCCOC)c(OCCOC)cc23)c1 at 4 µM	120	84.2	98.6	218	146	266	245	247	123	128	151	141	-	180	38.8
C[C@@H]1CCN(C(=O)CC#N)C[C@@H]1N(C)c1ncnc2[nH]ccc12 at 5 µM	96.0	194	111	40.2	93.1	122	97.9	224	61.2	-	113	137	-	37.9	37.5

Data from the primary screen of doi:10.1371/journal.pone.0140310, rounded.